Experimental data reported in paper doi:10.1101/2023.09.23.558792.
These are yes or no findings as the source states them, for the method shown. Binding seen in cells or lysates may run through a third protein. Some binding calls cover weakened binding; strength is not graded here.

By UniProt entry, the sequences of proteins in these tests, tags left out.
UniProt Q03135: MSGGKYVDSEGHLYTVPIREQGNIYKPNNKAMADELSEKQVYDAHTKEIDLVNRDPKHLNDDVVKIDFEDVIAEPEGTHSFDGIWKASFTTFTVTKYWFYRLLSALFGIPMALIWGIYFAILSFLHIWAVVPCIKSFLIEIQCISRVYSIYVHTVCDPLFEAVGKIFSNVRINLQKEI
UniProt O00429: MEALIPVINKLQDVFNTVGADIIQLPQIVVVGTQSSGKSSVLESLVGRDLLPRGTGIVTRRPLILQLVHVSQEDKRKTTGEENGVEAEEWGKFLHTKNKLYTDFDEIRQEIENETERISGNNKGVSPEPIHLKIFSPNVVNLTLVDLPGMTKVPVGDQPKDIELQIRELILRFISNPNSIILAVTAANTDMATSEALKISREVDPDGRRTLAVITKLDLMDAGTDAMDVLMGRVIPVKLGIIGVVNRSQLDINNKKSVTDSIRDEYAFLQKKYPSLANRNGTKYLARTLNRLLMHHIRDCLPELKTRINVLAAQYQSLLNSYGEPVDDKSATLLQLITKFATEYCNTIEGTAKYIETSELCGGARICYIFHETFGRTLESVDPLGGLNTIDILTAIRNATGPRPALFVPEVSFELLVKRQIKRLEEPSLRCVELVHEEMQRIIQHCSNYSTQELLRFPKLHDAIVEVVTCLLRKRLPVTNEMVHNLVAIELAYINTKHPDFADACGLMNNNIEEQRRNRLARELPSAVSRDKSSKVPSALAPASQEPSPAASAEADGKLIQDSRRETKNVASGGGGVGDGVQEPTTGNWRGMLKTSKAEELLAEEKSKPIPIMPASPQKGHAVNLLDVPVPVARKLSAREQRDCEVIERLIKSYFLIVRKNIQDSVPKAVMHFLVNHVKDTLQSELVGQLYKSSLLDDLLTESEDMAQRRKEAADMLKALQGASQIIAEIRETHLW

Target: Caveolin-1 (human (endogenous in iPSC-derived NPCs)) (UniProt Q03135)
Test: co-IP

With “dynamin-related protein 1 (from UniProt O00429 1-736)” the binding was “binds”.
